Construct, isoform or probe ends are uncertain for at least one entry. For some of these results: A weaker result is weaker than the reference pair of the same experiment. For some of these results: At least one verdict was read from the data and is not stated in words by the source. For some of these results: Protein sequences can lack the tags named with them.
How the values were obtained:
[1] = tested on: Mot1 + TBP + NC2alpha + NC2beta; experiment: negative stain EM 22 A; details: 1 mM ADP-BeFx; gel filtration: 20 mM MES pH 6.5 or HEPES pH 8.2, 60 mM KCl, 5 mM MgCl2, 2 mM DTT, 4 C; recombinant protein
[2] = tested on: Mot1 + TBP + NC2alpha + NC2beta; experiment: gel filtration / CX-MS; details: ADP-BeFx, ATPgS or ADP, 1 mM; gel filtration: 20 mM MES pH 6.5 or HEPES pH 8.2, 60 mM KCl, 5 mM MgCl2, 2 mM DTT, 4 C; recombinant protein
[3] = tested on: Mot1 + TBP + NC2alpha + NC2beta; experiment: EMSA; details: EMSA: 0.5 nM DNA, 20 nM TBP, 30 nM Mot1, 30 nM NC2, 4% glycerol, 4 mM Tris-HCl pH 8, 60 mM KCl, 5 mM MgCl2, 25 C, recombinant protein
[4] = tested on: Mot1NTD + TBP + NC2alpha + NC2beta; experiment: X-ray crystallography 3.8 A; details: gel filtration: 20 mM MES pH 6.5 or HEPES pH 8.2, 60 mM KCl, 5 mM MgCl2, 2 mM DTT, 4 C; recombinant protein
Mot1 + TBP = experiment: EMSA; details: EMSA: 0.5 nM DNA, 20 nM TBP, 30 nM Mot1, 30 nM NC2, 4% glycerol, 4 mM Tris-HCl pH 8, 60 mM KCl, 5 mM MgCl2, 25 C, recombinant protein, protein details: N-terminal His6,N-terminal His6, label: fluorescein at 5' end of one strand
[5] = target: T1, TBP (Encephalitozoon cuniculi) (UniProt Q8ST28); experiment: EMSA; details: 20 nM TBP, no ATP, EMSA: 0.5 nM DNA, 30 nM Mot1, 30 nM NC2, 4% glycerol, 4 mM Tris-HCl pH 8, 60 mM KCl, 5 mM MgCl2, 25 C, recombinant protein, residues 1-198, protein details: N-terminal His6, label: fluorescein at 5' end of one strand
T1 sequence (looked up): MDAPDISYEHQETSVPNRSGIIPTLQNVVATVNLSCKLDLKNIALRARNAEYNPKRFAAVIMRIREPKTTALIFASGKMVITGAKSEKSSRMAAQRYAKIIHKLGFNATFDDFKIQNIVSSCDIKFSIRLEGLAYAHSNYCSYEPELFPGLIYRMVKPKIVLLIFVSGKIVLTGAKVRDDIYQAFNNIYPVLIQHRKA

[6] = tested on: Mot1NTD + TBP + NC2alpha + NC2beta; experiment: EMSA; details: no ATP, NC2 prevents displacement; EMSA: 0.5 nM DNA, 20 nM TBP, 30 nM Mot1, 30 nM NC2, 4% glycerol, 4 mM Tris-HCl pH 8, 60 mM KCl, 5 mM MgCl2, 25 C; recombinant protein; label: fluorescein at 5' end of one strand
[7] = tested on: Mot1NTD delta-latch + TBP; experiment: EMSA; details: no ATP, more stable than Mot1NTD; EMSA: 0.5 nM DNA, 20 nM TBP, 30 nM Mot1, 30 nM NC2, 4% glycerol, 4 mM Tris-HCl pH 8, 60 mM KCl, 5 mM MgCl2, 25 C; recombinant protein; protein details: N-terminal His6; label: fluorescein at 5' end of one strand
[8] = tested on: Mot1 delta-latch + TBP + NC2alpha + NC2beta; experiment: EMSA; details: 50 uM ATP, impaired TBP removal; EMSA: 0.5 nM DNA, 20 nM TBP, 30 nM Mot1, 30 nM NC2, 4% glycerol, 4 mM Tris-HCl pH 8, 60 mM KCl, 5 mM MgCl2, 25 C; recombinant protein; protein details: N-terminal His6,none,His6 removed by TEV; label: fluorescein at 5' end of one strand
TBP + NC2alpha + NC2beta = experiment: EMSA; details: no ATP; EMSA: 0.5 nM DNA, 20 nM TBP, 30 nM Mot1, 30 nM NC2, 4% glycerol, 4 mM Tris-HCl pH 8, 60 mM KCl, 5 mM MgCl2, 25 C; recombinant protein; protein details: N-terminal His6,none,His6 removed by TEV; label: fluorescein at 5' end of one strand
Mot1 delta-latch + TBP = experiment: EMSA; details: 50 uM ATP, impaired TBP removal; EMSA: 0.5 nM DNA, 20 nM TBP, 30 nM Mot1, 30 nM NC2, 4% glycerol, 4 mM Tris-HCl pH 8, 60 mM KCl, 5 mM MgCl2, 25 C; recombinant protein; protein details: N-terminal His6; label: fluorescein at 5' end of one strand
Mot1NTD + TBP = experiment: EMSA; details: no ATP, Mot1NTD displaces TBP from DNA; EMSA: 0.5 nM DNA, 20 nM TBP, 30 nM Mot1, 30 nM NC2, 4% glycerol, 4 mM Tris-HCl pH 8, 60 mM KCl, 5 mM MgCl2, 25 C; recombinant protein; protein details: N-terminal His6,N-terminal His6; label: fluorescein at 5' end of one strand
[9] = tested on: Mot1NTD delta-latch + TBP + NC2alpha + NC2beta; experiment: EMSA; details: no ATP, distinct shift; EMSA: 0.5 nM DNA, 20 nM TBP, 30 nM Mot1, 30 nM NC2, 4% glycerol, 4 mM Tris-HCl pH 8, 60 mM KCl, 5 mM MgCl2, 25 C; recombinant protein; protein details: N-terminal His6,none,His6 removed by TEV; label: fluorescein at 5' end of one strand

Question: Does “CAGGCCGGGCGCCCGGCATGGCGGCCTATAAAAGGGTC (double strand) [38 bp EM TATA DNA]” bind [1]?
Answer: binds

Question: Does “CAGTACGGCCGGGCGCCCGGCATGGCGGCCTATAAAAGGGTC (double strand) [42 bp CX-MS TATA DNA]” bind [2]?
Answer: binds

Question: Does “GGGTACGGCCGGGCGCCCCGGATGGGGGGCTATAAAAGGGGGTGGGC (double strand) [47 bp digoxygenin end-blocked probe]” bind ([3]; 50 uM ATP, anti-digoxygenin antibody 2.5 nM, end block does not affect dissociation, 5' digoxygenin on top or bottom strand, label: 5' fluorescein and 5' digoxygenin)?
Answer: binds more weakly

Question: Does “AGTAGGGCTATAAAAGGGGGTGGC (double strand) [24 bp crystallization TATA DNA]” bind [4]?
Answer: binds

Question: Which results are given for “GGGTACGGCCGGGCGCCCCGGATGGGGGGCTATAAAAGGGGGTGGGC (double strand) [47 bp TATA EMSA probe]”?
Answer: binding result (Mot1 + TBP; 50 uM ATP, Mot1 dissociates TBP from DNA): binds more weakly; binding result (Mot1 + TBP; no ATP): binds; binding result [5]: binds; binding result ([3]; 50 uM ATP, complex dissociated, label: fluorescein at 5' end of one strand): binds more weakly; binding result ([3]; no ATP, label: fluorescein at 5' end of one strand): binds; binding result [6]: binds; binding result [7]: binds; binding result [8]: binds; binding result (TBP + NC2alpha + NC2beta): binds; binding result (Mot1 delta-latch + TBP): binds; binding result (Mot1NTD + TBP): binds more weakly; binding result [9]: binds

Reference: publication PMC4565979
